37 targets from the supplement of paper PMC12819154, “High-throughput peptide-centric local stability assay extends protein–ligand identification to membrane proteins, tissues and bacteria” (Nature Structural & Molecular Biology, 2025) can be followed below.

Amino acid sequences for entries named in this document (tags omitted). A change or cut given only in a name is not applied to a line headed by its entry.
UniProt O75319: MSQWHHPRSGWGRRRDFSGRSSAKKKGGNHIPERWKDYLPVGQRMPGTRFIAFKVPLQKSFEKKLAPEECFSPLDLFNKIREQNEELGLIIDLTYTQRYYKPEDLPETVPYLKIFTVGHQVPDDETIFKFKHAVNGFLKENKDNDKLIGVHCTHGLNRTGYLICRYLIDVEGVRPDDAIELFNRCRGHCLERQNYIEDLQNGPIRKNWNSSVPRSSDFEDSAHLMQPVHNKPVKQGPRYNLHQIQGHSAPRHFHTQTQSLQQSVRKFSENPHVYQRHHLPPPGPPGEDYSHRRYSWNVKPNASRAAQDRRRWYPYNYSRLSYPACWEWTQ
UniProt O75182: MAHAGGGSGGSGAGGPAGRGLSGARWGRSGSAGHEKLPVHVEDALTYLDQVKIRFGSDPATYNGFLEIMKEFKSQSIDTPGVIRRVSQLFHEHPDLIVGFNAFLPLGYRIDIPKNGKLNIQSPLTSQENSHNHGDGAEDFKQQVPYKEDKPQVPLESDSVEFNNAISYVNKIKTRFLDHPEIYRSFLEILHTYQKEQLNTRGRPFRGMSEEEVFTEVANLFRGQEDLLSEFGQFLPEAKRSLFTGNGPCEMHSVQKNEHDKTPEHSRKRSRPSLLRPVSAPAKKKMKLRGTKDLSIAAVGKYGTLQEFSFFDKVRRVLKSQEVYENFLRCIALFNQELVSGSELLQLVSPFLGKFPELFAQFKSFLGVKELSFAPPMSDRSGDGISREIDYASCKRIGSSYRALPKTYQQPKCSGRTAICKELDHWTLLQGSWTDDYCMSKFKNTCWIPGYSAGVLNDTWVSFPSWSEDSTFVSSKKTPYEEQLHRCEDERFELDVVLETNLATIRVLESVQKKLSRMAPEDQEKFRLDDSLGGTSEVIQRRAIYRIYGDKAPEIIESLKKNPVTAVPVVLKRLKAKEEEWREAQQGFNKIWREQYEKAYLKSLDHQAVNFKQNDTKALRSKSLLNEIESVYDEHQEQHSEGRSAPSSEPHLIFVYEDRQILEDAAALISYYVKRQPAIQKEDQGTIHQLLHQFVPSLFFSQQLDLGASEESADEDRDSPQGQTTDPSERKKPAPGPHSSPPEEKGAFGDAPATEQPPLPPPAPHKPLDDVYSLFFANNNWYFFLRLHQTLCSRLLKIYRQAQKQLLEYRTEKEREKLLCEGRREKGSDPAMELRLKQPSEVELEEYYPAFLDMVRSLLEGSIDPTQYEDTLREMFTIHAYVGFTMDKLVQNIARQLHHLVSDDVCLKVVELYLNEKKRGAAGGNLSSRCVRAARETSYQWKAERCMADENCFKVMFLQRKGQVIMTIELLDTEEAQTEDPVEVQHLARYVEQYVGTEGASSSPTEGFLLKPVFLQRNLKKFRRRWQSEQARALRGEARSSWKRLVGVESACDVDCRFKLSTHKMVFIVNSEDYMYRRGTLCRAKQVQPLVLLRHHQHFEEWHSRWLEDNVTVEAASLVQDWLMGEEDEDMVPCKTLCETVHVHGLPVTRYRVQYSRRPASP
UniProt O75113: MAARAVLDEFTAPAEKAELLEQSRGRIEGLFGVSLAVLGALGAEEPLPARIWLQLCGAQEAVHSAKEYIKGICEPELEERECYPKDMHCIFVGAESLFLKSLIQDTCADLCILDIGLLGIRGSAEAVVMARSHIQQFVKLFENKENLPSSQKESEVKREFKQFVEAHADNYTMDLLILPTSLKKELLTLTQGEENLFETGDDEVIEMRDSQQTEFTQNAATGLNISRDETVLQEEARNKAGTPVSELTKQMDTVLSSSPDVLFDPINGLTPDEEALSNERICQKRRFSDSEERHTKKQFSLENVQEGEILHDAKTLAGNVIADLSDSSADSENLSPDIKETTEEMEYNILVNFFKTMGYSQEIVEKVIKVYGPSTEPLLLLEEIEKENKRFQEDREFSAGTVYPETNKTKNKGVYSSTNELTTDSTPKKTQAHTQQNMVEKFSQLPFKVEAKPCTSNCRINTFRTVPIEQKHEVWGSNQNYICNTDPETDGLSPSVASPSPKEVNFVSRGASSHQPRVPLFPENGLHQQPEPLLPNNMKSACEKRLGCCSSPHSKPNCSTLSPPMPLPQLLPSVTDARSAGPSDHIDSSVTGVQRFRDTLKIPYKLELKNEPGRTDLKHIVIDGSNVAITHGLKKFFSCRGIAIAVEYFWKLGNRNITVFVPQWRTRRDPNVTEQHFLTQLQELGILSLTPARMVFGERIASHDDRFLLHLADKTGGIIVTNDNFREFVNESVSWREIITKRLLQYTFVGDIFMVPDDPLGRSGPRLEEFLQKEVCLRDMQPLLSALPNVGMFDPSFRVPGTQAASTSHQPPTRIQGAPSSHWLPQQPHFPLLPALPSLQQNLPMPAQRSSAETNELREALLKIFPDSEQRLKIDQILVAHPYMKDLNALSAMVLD
UniProt O60443: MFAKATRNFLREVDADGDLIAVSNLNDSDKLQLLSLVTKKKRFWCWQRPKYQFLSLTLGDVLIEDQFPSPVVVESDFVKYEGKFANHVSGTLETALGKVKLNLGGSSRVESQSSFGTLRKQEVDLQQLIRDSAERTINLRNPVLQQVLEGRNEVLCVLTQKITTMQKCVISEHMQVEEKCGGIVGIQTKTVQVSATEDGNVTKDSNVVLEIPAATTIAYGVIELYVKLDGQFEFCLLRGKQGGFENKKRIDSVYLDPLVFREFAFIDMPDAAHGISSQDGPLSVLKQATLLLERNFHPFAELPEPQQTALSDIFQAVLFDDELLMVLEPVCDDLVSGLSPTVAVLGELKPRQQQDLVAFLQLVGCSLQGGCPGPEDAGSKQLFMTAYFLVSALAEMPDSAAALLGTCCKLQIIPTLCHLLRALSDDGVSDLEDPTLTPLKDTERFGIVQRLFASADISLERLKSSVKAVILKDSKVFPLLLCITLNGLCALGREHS
UniProt O15550, whole entry: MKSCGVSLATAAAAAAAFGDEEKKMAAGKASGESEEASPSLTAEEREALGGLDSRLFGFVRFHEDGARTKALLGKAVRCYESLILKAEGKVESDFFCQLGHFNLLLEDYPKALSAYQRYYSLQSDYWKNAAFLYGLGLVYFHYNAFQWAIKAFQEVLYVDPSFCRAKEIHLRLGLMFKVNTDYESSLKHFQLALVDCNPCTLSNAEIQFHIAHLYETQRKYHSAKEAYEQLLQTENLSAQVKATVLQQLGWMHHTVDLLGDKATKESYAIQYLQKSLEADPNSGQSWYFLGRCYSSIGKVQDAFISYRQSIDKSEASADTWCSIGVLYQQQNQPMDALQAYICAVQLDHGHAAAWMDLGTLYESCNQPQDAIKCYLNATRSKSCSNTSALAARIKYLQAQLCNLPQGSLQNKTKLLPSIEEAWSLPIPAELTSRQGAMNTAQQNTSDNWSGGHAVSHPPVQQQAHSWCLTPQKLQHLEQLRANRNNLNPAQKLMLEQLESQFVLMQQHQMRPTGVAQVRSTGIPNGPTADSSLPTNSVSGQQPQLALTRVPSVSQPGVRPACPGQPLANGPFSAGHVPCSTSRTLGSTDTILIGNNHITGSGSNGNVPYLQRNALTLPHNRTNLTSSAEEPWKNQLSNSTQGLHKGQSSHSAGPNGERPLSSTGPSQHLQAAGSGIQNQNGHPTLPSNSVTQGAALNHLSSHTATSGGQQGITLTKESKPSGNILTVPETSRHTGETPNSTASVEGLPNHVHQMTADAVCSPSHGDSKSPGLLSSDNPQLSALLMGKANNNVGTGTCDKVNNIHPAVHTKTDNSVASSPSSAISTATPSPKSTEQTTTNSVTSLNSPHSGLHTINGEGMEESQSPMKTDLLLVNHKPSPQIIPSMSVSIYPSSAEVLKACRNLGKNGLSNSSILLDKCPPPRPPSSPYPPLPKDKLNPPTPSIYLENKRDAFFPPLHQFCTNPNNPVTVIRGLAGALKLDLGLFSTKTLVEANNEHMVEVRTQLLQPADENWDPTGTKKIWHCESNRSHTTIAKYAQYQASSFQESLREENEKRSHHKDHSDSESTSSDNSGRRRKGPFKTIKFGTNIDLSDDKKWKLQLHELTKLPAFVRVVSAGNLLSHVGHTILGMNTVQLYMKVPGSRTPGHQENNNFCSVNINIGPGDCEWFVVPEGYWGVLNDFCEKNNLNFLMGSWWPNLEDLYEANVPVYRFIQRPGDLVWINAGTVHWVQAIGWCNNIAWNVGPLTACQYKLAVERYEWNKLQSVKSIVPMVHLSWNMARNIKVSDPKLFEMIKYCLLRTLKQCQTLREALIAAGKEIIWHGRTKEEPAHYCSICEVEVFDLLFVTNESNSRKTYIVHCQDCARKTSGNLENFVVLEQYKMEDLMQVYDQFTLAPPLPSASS
UniProt O75346: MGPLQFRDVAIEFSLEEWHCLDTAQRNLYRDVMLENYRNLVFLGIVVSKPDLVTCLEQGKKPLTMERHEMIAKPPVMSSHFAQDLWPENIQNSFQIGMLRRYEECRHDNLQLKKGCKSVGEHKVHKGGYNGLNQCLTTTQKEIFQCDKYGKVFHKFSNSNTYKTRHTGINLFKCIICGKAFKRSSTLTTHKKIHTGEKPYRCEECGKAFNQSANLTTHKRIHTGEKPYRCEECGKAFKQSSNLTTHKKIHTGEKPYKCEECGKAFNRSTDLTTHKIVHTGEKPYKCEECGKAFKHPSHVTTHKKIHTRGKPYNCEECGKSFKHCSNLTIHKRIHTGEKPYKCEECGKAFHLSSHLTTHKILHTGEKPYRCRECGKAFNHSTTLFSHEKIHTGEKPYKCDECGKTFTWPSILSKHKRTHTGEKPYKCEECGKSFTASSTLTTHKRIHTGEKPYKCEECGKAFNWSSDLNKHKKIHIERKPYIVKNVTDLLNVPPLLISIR
UniProt O43159: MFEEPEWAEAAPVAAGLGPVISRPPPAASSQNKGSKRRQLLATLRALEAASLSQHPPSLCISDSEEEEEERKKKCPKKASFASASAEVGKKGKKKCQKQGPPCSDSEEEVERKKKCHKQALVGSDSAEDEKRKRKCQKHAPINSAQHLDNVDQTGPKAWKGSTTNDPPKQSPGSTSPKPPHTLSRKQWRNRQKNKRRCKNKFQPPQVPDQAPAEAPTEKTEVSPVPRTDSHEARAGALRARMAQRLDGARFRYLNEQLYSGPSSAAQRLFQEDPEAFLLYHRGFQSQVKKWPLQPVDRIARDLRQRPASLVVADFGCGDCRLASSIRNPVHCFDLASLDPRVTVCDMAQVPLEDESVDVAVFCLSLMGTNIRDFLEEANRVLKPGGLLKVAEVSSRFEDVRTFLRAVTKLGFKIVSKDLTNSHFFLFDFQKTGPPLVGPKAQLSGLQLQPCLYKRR
UniProt O75056, whole entry: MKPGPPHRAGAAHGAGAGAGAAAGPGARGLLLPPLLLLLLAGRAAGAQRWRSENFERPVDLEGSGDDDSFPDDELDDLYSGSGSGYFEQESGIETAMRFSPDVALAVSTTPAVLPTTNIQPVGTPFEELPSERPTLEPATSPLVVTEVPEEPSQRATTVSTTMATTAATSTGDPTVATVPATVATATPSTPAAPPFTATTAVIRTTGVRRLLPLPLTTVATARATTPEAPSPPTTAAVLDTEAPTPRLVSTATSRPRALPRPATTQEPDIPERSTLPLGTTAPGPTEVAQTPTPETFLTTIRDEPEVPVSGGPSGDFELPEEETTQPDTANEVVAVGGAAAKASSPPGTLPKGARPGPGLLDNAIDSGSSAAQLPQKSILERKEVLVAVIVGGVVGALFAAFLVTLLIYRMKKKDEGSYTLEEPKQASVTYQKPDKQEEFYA
UniProt O60921: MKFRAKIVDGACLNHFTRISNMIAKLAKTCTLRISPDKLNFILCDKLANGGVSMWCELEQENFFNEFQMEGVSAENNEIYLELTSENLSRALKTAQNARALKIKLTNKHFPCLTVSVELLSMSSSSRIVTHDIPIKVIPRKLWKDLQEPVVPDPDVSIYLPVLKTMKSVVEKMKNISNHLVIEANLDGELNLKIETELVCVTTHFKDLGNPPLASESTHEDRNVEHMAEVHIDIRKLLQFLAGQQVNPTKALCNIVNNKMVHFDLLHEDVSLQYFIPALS
UniProt O43405: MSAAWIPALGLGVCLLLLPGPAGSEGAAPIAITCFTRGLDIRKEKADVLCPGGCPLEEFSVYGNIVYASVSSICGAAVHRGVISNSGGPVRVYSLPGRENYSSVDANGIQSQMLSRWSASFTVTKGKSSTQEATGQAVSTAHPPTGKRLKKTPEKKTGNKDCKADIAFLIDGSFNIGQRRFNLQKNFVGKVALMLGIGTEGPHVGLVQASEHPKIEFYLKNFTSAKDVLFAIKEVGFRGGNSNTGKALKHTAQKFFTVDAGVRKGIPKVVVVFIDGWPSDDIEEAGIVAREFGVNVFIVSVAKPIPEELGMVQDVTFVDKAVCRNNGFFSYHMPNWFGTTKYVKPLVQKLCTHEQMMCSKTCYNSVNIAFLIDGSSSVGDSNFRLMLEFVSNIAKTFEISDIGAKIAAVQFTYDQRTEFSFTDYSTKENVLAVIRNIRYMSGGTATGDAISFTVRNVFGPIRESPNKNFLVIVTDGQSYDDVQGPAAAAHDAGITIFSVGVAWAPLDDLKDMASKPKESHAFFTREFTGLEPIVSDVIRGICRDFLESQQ

Some of the results follow. Small differences around the control level are noise.

Compound in the experiment: CN[C@@H]1C[C@H]2O[C@@](C)([C@@H]1OC)n1c3ccccc3c3c4c(c5c6ccccc6n2c5c31)C(=O)NC4 [staurosporine]
Nature of the experiment: log2 fold change of tryptic peptide abundance, ligand vs vehicle (limited proteolysis) (log2 ratio); higher = more trypsin-susceptible (destabilized). As to conditions: ligand concentration: 20 uM; sample: K562 cleared lysate; digestion: 4 min, 22 C (HT-PELSA RT4min, Orbitrap Astral).
Regarding “XRCC2 (peptide sequence: ASSSSEEPSHASR, peptide start residue: 202) (UniProt O43543)”, the log2 fold change is -0.242.

On to “UniProt O60524 (peptide sequence: NVAAVQPMKR, peptide start residue: 861)”, for which the log2 fold change was found to be 0.286.

On to “HTRA2 (peptide sequence: EPSFPDVQHGVLIHK, peptide start residue: 381) (UniProt O43464)”, for which the log2 fold change turned out to be 0.643.

Consider “PEX14 (peptide sequence: RGGDGQINEQVEK, peptide start residue: 351) (UniProt O75381)”, for which the log2 fold change is -0.427.

Turning to “DUSP11 (peptide sequence: YSWNVKPNASR, peptide start residue: 341) (UniProt O75319)”, the log2 fold change came out at 0.25.

On to “MRPS14 (peptide sequence: KMAYEYADER, peptide start residue: 42) (UniProt O60783)”, for which the log2 fold change is 0.395.

For the target “SIN3B (peptide sequence: EIDYASCK, peptide start residue: 388) (UniProt O75182)”, the log2 fold change is -0.32.

As for “SMARCA5 (peptide sequence: STLHNWMSEFKR, peptide start residue: 239) (UniProt O60264)”, the log2 fold change amounted to 0.154.

Consider “CDC40 (peptide sequence: NQGLTVFETGQK, peptide start residue: 162) (UniProt O60508)”, for which the log2 fold change was found to be 0.444.

Take “PRMT3 (peptide sequence: ALSAEAALAR, peptide start residue: 169) (UniProt O60678)”: the log2 fold change amounted to 0.192.

For “N4BP1 (peptide sequence: AELLEQSR, peptide start residue: 17) (UniProt O75113)”, the log2 fold change is -0.285.

“MAFK (peptide sequence: GPVAPSK, peptide start residue: 124) (UniProt O60675)”: the log2 fold change is -0.0867.

Turning to “PPIH (peptide sequence: KIENVPTGPNNKPK, peptide start residue: 153) (UniProt O43447)”, the log2 fold change worked out at 0.39.

Take “RNGTT (peptide sequence: LLEGNFAK, peptide start residue: 424) (UniProt O60942)”: the log2 fold change came to 0.767.

“MAGEB2 (peptide sequence: SPSEDPLTRK, peptide start residue: 105) (UniProt O15479)”: the log2 fold change worked out at 0.197.

For “HNRNPR (peptide sequence: DYAFVHFEDR, peptide start residue: 375) (UniProt O43390)”, the log2 fold change is -0.119.

Consider “CBFA2T3 (peptide sequence: QAMSELQK, peptide start residue: 500) (UniProt O75081)”, for which the log2 fold change came to 0.114.

Turning to “UniProt O60443 (peptide sequence: LQIIPTLCHLLR, peptide start residue: 410)”, the log2 fold change was -0.0875.

On to “SNX2 (peptide sequence: EVGRFEK, peptide start residue: 474) (UniProt O60749)”, for which the log2 fold change amounted to 0.263.

For the target “KDM6A (peptide sequence: NGLSNSSILLDK, peptide start residue: 906) (UniProt O15550)”, the log2 fold change is -0.192.

Consider “TAPBP (peptide sequence: VSLMPATLAR, peptide start residue: 294) (UniProt O15533)”, for which the log2 fold change was -0.028.

As to “UniProt O43402 (peptide sequence: DASPNQVAEK, peptide start residue: 101)”, the log2 fold change came to 0.193.

For the target “UniProt O15524 (peptide sequence: VAHNQVAADNAVSTAAEPR, peptide start residue: 2)”, the log2 fold change stood at 0.182.

With “UniProt O75346 (peptide sequence: FSNSNTYK, peptide start residue: 156)”, the log2 fold change was -0.157.

For “CYTH3 (peptide sequence: ACKTEADGR, peptide start residue: 337) (UniProt O43739)”, the log2 fold change is -0.583.

With “UniProt O75143 (peptide sequence: EFDAFVETLQ, peptide start residue: 508)”, the log2 fold change is -0.264.

On to “UniProt O43159 (peptide sequence: VAEVSSRFEDVR, peptide start residue: 390)”, for which the log2 fold change was -0.468.

Take “P4HA2 (peptide sequence: EYILVEEAK, peptide start residue: 46) (UniProt O15460)”: the log2 fold change was -0.0883.

In the case of “KIAA0556 (peptide sequence: SEQLEEAMNAHSEESK, peptide start residue: 626) (UniProt O60303)”, the log2 fold change amounted to 0.218.

Turning to “SDC3 (peptide sequence: ALPRPATTQEPDIPER, peptide start residue: 258) (UniProt O75056)”, the log2 fold change stood at 0.0592.

“XPOT (peptide sequence: YKYSELTTVQQQLIR, peptide start residue: 66) (UniProt O43592)”: the log2 fold change worked out at 0.628.

On to “CCNT2 (peptide sequence: TEQLYSQK, peptide start residue: 360) (UniProt O60583)”, for which the log2 fold change came to 0.186.

For the target “HUS1 (peptide sequence: IVTHDIPIKVIPR, peptide start residue: 128) (UniProt O60921)”, the log2 fold change was -0.482.

With “EEF1E1 (peptide sequence: VTQVDGHSSK, peptide start residue: 79) (UniProt O43324)”, the log2 fold change worked out at 0.381.

Turning to “COCH (peptide sequence: SSTQEATGQAVSTAHPPTGK, peptide start residue: 128) (UniProt O43405)”, the log2 fold change is -0.148.

Regarding “DHX15 (peptide sequence: IFEPPPPK, peptide start residue: 400) (UniProt O43143)”, the log2 fold change came out at 0.261.

For the target “PHGDH (peptide sequence: KVLISDSLDPCCRK, peptide start residue: 8) (UniProt O43175)”, the log2 fold change was -0.229.
